Experimental data: PubChem BioAssay AID602196 (INSERM, 2012)

Aim: 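Knock-downs that protect lung cancer cells from cisplatin or sensitise them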
System: human A549 lung cancer cells
Reagents: siRNA pair against human genes
Timing: 48 h transfection before cisplatin; time from cisplatin to read-out not stated
Conditions: cisplatin at a dose killing half of control-siRNA cells; exact dose and duration not given
Measured: 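Shift in cisplatin death relative to control siRNA, from -50 (all cells die) to +50 (no cells die); siRNAs harmful on their own scored 0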
Scale: two-siRNA summed score (-2 to +2): higher = both siRNAs protect from cisplatin killing; -2 means both sensitise
Active means: 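siRNAs harmful alone (LDH or WST-1) get 0; others get +1 for less and -1 for more cisplatin killing; genes are active when the two siRNAs give the same sign, summing to ±2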
Calls: active = both siRNAs shift cisplatin killing the same way; inactive = no consistent shift, or siRNA harmful alone
The deposit covers about 23,000 reagents; this is an unselected part. 455 of all reagents (2%) count as active. 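Active includes both protection and sensitisation; some change values fall well beyond the stated -50 to +50 range.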 A number with no mark means an inactive call. Reagents against one gene are numbered here. Further read-outs or replicates are left out here. Not stated in the record: the amount of reagent.

two-siRNA summed score (-2 to +2), by gene and reagent
ADAR: #1 -2 (active)
MKI67: #1 0
S100B: #1 -1
LSM4: #1 0
FLJ36157: #1 0
MAX: #1 1
DYNLRB1: #1 0
SNAPIN: #1 0
TCEAL7: #1 0
EDF1: #1 -1
GAL3ST4: #1 0
KLC1: #1 -1; #2 0
LOC402582: #1 0
ASXL2: #1 0
VTN: #1 0
MGC34774: #1 0
ZNF101: #1 1
SNRNP25: #1 0
CDHR5: #1 0
EPB41L2: #1 0
DCUN1D5: #1 0
HOXC4: #1 0
SLC2A2: #1 0
NDUFC2: #1 -1
CA13: #1 0
GATA2: #1 1
PAK2: #1 1
CCT6B: #1 0
LINC02915: #1 -1
DKFZP434F122: #1 1
ABCA6: #1 0
SCN2B: #1 0
EFCC1: #1 0
PGD: #1 1
CCDC106: #1 1
STX10: #1 0
FLJ33534: #1 1
WDR24: #1 1
